This series has as its system gramicidin A (gA) channels in DC22:1PC lipid bilayer vesicles. Put plainly: gramicidin-based stopped-flow fluorescence quench assay (Tl+ influx into ANTS-filled, gA-doped LUVs). The class given is biochemical, Bacillus brevis. The note with it: at the concentration where the molecules double or half the rate of fluorescence quenching. Here is the method:
24 hours before fluorescence measurements, ANTS-filled liposomes were mixed 1:20 in S_Na_Buffer. For the portion of liposomes that are to be doped with gramicidin, the desired amount of gramicidins was added at this time. […] Gramicidin diluted in DMSO was used, but the added DMSO was kept to an absolute minimum (<0.1% of volume) as DMSO of >0.5% affects bilayer properties. The solution was stored at 12-13° C. in the dark.
The modifier in question was diluted in DMSO. The same amount of DMSO was added to all samples, including control.
For each condition: • 1. Use 1.5 mL of diluted ANTS-liposomes for each condition (compound, concentration). • 2. Add compound at the desired concentration and incubate for 10 min at 25° C. (keep in dark), or DMSO for controls. • 3. Record fluorescence, x8 repeats, with S_Na_Buffer (the first four should be removed due to mixing). • 4. Record fluorescence, x12 repeats, with S_Tl_Quencher (the first four should also be removed due to mixing).
Generate fluorescent liposomes. […] 1,2-Dierucoyl-sn-Glycero-3-Phosphocholine lipids, from Avanti Polar Lipids (Alabaster, Ala.), were bought in a lipid/chloroform solution and used without further purification. For each batch of vesicles, the lipid/chloroform solution was dried under nitrogen and then further dried in a dessicator under vacuum overnight to fully remove the chloroform. The dried lipid film was rehydrated in 100 mM NaNO3, 25 mM ANTS, 10 mM HEPES at pH 7.0 at room temperature over night, volume was adjusted to give a 10 mM lipid concentration. The suspension was then sonicated in a low power sonicator for 1 min, subjected to 5-6 freeze thaw cycles and extruded 21 times, at room temperature, using Avanti mini-extruder, Avanti Polar Lipids (Alabaster, Ala.), and a 0.1 μm Polycarbonate Membrane filter. External ANTS was removed by filtering though a PD-10 Desalting column, GE Healthcare (Piscataway, N.J.). Prepared ANTS-LUV stock was stored at 12-13° C. in the dark for a maximum of seven days. Before the fluorescence experiments ANTS-LUV stock was diluted 1:20 with 140 mM NaNO3, 10 mM HEPES, pH 7.0 buffer. For the portion of vesicles to be doped with gA the desired amount of gramicidin from Bacillus aneurinolyticus, Sigma Chemical Co. (St. Louis, Mo.), diluted in dimethylsulfoxide (DMSO) was added and incubated for 24 hours at 12-13° C. in the dark.
The final DMSO concentrations were kept consistent for all samples and under 0.5% with the exception of when DMSO was tested, then listed amounts where used and no DMSO was added to controls.
The fluorescence was measured using a SX.20 Stopped-Flow Spectrometer (Applied Photophysics, Leatherhead, UK), with a 150-W Xenon lamp, a two sample rapid mixing unit with machine dead time˜1.2 ms and a thermostatting water bath set to 25° C. The samples were excited at X=352 nm and fluorescence was recorded though λ=455 nm high pass filter with Pro-Data control software from Applied Photophysics, sampling 5000 points a second. For each sample at least 10 repeated mixing trials were measured, from two or more vesicle preparations. Each repeat was separately analyzed using MATLAB v7.4, The MathWorks, Inc (Natick, Mass.). The time course of fluorescence quenching was normalized to the average fluorescence without quencher, for that particular sample, and the first 2-100 ms of the time course was fitted with a stretched exponential. The initial influx rate is quantified as the rate of the stretched exponential at 2 ms.
Regarding `COc1cc(CNC(=O)CCCC/C=C/C(C)C)ccc1O` [Capsaicin], the “Lipids/drug: number of lipids per molecule at their active concentration (~1/mAM)” value stood at 25.

Regarding `O=c1c(-c2ccc(O)cc2)coc2cc(O)cc(O)c12` [Genistein], the “Lipids/drug: number of lipids per molecule at their active concentration (~1/mAM)” value came out at 25.

As for `CCCCCCCCO[C@@H]1O[C@H](CO)[C@@H](O)[C@H](O)[C@H]1O` [β-octylglucoside], the “Lipids/drug: number of lipids per molecule at their active concentration (~1/mAM)” value worked out at 2600.

Take (−)-epigallocatechin gallate: the “Lipids/drug: number of lipids per molecule at their active concentration (~1/mAM)” value was found to be 50.

On to Triton X-100, for which the “Lipids/drug: number of lipids per molecule at their active concentration (~1/mAM)” value was found to be 170.

For the origin of these results see patent publication US8901042B2, “High throughput screen for measuring membrane effects” (Cornell University, priority 2009, dated 2014).
